According to publication PMC9701223:
These are yes or no findings as the source states them, for the method shown. In cells and extracts the contact can be indirect. Some results given as binding are weak or reduced against the parent protein; the word gives no strength. Sequences can lack the tags named with a protein. One block for each substance: values may come before it.

By UniProt entry, the sequences of proteins in these tests, tags left out.
UniProt Q9VQ93: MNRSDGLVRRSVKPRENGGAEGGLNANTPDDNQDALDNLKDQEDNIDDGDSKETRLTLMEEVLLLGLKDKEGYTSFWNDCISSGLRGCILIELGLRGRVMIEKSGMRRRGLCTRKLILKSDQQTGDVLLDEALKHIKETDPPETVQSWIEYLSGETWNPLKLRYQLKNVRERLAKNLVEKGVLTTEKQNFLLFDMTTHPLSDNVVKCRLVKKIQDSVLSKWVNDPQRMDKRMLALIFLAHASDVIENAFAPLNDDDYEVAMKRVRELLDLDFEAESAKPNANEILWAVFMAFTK

Columns and labels:
[1] = biological target: T1, GST-14-3-3ζ (Drosophila melanogaster) (UniProt P29310); assay: pull-down; GST or GST-tagged protein (4 µg) on glutathione-Sepharose 4B beads, incubated with Drosophila S2 cell lysate, 4 °C, 2 h; wash 25 mM Tris-HCl pH 7.4, 150 mM NaCl, 1% NP-40, 1 mM EDTA; western blot; only the target purified
T1 sequence: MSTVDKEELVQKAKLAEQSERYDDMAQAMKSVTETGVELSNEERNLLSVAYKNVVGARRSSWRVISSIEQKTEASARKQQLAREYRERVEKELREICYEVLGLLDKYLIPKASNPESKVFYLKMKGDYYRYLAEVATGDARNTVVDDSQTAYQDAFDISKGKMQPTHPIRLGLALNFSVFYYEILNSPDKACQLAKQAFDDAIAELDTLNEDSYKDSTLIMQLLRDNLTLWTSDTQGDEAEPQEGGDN

[2] = biological target: T2, GST-Tctp (Drosophila Translationally controlled tumor protein) (Drosophila melanogaster) (UniProt Q9VGS2); assay: as above
T2 sequence: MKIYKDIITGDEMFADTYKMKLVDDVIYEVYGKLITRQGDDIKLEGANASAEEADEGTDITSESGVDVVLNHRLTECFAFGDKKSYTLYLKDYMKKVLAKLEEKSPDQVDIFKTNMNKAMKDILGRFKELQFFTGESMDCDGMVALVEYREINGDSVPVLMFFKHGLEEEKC

[3] = biological target: T3, Tctp-HA (HA-tagged Tctp) (Drosophila melanogaster) (UniProt Q9VGS2); assay: co-IP; anti-HA agarose beads on lysates of pupae overexpressing Tctp-HA, with or without knockdown of dGOLPH3 (RNAi); Buffer A, 4 °C; eluted with 200 mM glycine pH 2.0
T3 sequence: T2 sequence

[4] = biological target: T1, GST-14-3-3ζ (Drosophila melanogaster); assay: pull-down; GST or GST-tagged protein (4 µg) on glutathione-Sepharose 4B beads, incubated with testis extracts expressing dGOLPH3-HA, 4 °C, 2 h; wash 25 mM Tris-HCl pH 7.4, 150 mM NaCl, 1% NP-40, 1 mM EDTA; western blot; only the target purified
[5] = biological target: T4, GST-Lst8 (Drosophila melanogaster) (UniProt Q9W328); assay: as above
T4 sequence: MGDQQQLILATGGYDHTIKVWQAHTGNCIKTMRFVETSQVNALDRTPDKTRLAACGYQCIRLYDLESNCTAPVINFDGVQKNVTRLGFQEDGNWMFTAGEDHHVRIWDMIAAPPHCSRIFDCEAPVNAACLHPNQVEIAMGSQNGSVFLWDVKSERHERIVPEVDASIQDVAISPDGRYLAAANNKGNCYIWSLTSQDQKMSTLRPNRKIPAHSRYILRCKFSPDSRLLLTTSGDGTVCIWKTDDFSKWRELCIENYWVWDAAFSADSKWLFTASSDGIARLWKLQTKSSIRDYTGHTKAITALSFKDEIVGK

binding [1]: binds | binding [2]: binds
Substance: dGOLPH3 (Drosophila Golgi phosphoprotein 3), endogenous in S2 cells (from UniProt Q9VQ93 1-294)

binding [3]: binds
Substance: dGOLPH3 (Drosophila Golgi phosphoprotein 3), endogenous in pupae (from UniProt Q9VQ93 1-294)

binding [4]: binds | binding [5]: binds
Substance: dGOLPH3-HA (hemagglutinin tagged dGOLPH3) (from UniProt Q9VQ93 1-294)
